Here are results for 3 substances from article PMC11319392.

Amino acid sequences for entries named in this document (tags omitted). A change or cut given only in a name is not applied to a line headed by its entry.
UniProt O00165: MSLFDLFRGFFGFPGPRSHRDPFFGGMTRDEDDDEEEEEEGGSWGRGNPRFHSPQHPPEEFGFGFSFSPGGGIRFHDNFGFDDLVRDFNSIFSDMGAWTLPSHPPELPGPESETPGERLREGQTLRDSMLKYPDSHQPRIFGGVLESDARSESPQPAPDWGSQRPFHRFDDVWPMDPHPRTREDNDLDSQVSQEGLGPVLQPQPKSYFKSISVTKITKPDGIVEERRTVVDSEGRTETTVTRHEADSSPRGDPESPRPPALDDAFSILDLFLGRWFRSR

No constants are given. Whether binding was seen depends on the method and setting. Binding seen in cells or lysates may run through a third protein. Some results given as binding are weak or reduced against the parent protein; the word gives no strength. Where a sequence is shown, tags or fusion partners need not be part of it.

This assay addresses T1, HA-tagged Mst1 (mammalian sterile-like kinase-1), full length (UniProt Q13043).
T1 sequence: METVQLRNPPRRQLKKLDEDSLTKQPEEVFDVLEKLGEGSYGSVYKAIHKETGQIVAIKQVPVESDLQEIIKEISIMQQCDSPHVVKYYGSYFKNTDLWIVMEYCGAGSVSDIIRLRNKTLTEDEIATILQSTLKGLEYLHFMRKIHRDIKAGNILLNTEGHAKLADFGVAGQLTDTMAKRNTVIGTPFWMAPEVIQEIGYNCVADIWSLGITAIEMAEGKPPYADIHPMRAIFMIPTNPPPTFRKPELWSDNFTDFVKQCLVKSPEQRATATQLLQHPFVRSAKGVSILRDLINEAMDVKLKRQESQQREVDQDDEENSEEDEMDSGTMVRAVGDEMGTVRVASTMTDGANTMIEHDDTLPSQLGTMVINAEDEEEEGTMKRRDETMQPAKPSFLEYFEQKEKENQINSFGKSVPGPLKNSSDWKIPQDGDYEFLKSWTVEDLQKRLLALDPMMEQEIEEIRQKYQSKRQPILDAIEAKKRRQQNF
Description: co-IP; HEK293TN cells co-transfected with GFP-HAX1 (full length or truncates) and full-length HA-Mst1; lysate precipitated with HA antibody and protein A/G-agarose, overnight at 4 °C, washed with RIPA lysis buffer; blot for GFP.

“GFP-tagged HAX1 (HCLS1-associated protein X-1), full length (from UniProt O00165 1-279)”: the binding result is reported as “binds”.

“GFP-tagged HAX1 truncate (1–45) (from UniProt O00165 1-45) (domain or fragment)”: the binding entry was “no binding”.

On to “GFP-tagged HAX1 truncate (1–100) (from UniProt O00165 1-100) (domain or fragment)”, for which the binding result was “no binding”.
